For this assay, the target named is FLAG-tagged Jade1S (murine) (mouse) (UniProt Q6ZPI0). The assay is described as follows: affinity purification with mass spectrometry.

Protein sequences, listed by entry. Tags and fused reporters are not part of them. Lines headed by an entry give the natural chain unless they say otherwise; changes in a name come on top. Chains listed by the source or under a name are the forms on record and can include a tag or linker.
FLAG-tagged Jade1S (murine) (Q6ZPI0, form named): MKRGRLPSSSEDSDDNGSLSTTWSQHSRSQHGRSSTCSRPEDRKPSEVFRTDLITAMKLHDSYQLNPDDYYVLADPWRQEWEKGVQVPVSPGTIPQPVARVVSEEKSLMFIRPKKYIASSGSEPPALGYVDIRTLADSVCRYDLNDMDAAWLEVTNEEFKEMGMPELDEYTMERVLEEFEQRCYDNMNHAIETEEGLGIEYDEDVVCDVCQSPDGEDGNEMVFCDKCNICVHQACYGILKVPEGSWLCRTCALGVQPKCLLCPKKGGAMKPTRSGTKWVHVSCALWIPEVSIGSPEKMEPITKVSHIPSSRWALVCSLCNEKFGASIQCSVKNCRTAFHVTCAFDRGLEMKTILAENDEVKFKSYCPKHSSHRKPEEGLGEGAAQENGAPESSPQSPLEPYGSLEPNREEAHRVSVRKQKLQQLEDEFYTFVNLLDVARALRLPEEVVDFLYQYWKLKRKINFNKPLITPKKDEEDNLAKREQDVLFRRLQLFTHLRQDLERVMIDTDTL
UniProt Q9R1P4: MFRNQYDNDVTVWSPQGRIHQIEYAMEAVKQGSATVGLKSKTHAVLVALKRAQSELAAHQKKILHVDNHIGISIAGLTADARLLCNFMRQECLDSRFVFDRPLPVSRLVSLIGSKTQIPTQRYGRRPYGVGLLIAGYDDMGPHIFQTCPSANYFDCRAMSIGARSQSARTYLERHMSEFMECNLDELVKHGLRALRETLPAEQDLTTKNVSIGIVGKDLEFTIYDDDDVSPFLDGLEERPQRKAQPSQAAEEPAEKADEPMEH

No constants are given. Whether binding was seen depends on the method and setting. Binding seen in cells or lysates may run through a third protein. These calls come from enrichment with a bait or labelling near it, and not all partners need be listed.

As to PSMA1 (from UniProt Q9R1P4 1-263), the binding entry is given as “binds”.

(Values after article doi:10.1101/2021.10.01.462752.)
